# Reference: the supplement of paper PMC8728848
# Some of the results follow.
# B1: Eosinophil-derived neurotoxin (EDN) (Homo sapiens), P10153 (protein)
# chain: MVPKLFTSQICLLLLLGLLAVEGSLHVKPPQFTWAQWFETQHINMTSQQCTNAMQVINNYQRRCKNQNTFLLTTFANVVNVCGNPNMTCPSNKTRKNCHHSGSQVPLIHCNLTTPSPQNISNCRYAQTPANMFYIVACDNRDQRRDPPQYPVVPVHLDRII
# Experiments:
# Assay in all cases: glycan array binding signal (z-score within array); higher = stronger binding
# Details in all cases: glycan notation: IUPAC condensed, linker removed
# [1] = molecular target: Gal3S(b1-3)[Fuc(a1-4)]GlcNAc
# Summary of the method: (§1)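 Glycan array binding is given as a within-array Z-score, which can be read as non-binding when negative. The arrays, 3228 of them, came from the Consortium for Functional Glycomics database and were retained only where the protein sequence was available. Z-scores were averaged across arrays of the same protein sequence at different concentrations or buffers and across linkers.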
# Gal3S(b1-4)Glc = molecular target: Gal3S(b1-4)Glc
# Summary of the method: as §1
# Gal3S(b1-4)Glc6S = molecular target: Gal3S(b1-4)Glc6S
# Summary of the method: as §1
# Gal3S(b1-4)GlcNAc = molecular target: Gal3S(b1-4)GlcNAc
# Summary of the method: as §1
# Gal3S(b1-4)GlcNAc6S = molecular target: Gal3S(b1-4)GlcNAc6S
# Summary of the method: as §1
# [2] = molecular target: Gal3S(b1-4)[Fuc(a1-3)]Glc
# Summary of the method: as §1
# [3] = molecular target: Gal3S(b1-4)[Fuc(a1-3)]Glc6S
# Summary of the method: as §1
# Gal3S4S(b1-4)GlcNAc = molecular target: Gal3S4S(b1-4)GlcNAc
# Summary of the method: as §1
# Gal3S6S(b1-4)GlcNAc = molecular target: Gal3S6S(b1-4)GlcNAc
# Summary of the method: as §1
# Gal3S6S(b1-4)GlcNAc6S = molecular target: Gal3S6S(b1-4)GlcNAc6S
# Summary of the method: as §1
# Gal4S(b1-4)GlcNAc = molecular target: Gal4S(b1-4)GlcNAc
# Summary of the method: as §1
# Gal4S6S(b1-4)GlcNAc = molecular target: Gal4S6S(b1-4)GlcNAc
# Summary of the method: as §1
# Gal6S(b1-3)GlcNAc = molecular target: Gal6S(b1-3)GlcNAc
# Summary of the method: as §1
# Gal6S(b1-3)GlcNAc6S = molecular target: Gal6S(b1-3)GlcNAc6S
# Summary of the method: as §1
# Gal6S(b1-4)Glc = molecular target: Gal6S(b1-4)Glc
# Summary of the method: as §1
# Gal6S(b1-4)Glc6S = molecular target: Gal6S(b1-4)Glc6S
# Summary of the method: as §1
# Gal6S(b1-4)GlcNAc = molecular target: Gal6S(b1-4)GlcNAc
# Summary of the method: as §1
# Gal6S(b1-4)GlcNAc6S = molecular target: Gal6S(b1-4)GlcNAc6S
# Summary of the method: as §1
# GalNAc(a1-3)Gal = molecular target: GalNAc(a1-3)Gal
# Summary of the method: as §1
# GalNAc(a1-3)GalNAc = molecular target: GalNAc(a1-3)GalNAc
# Summary of the method: as §1
# [4] = molecular target: GalNAc(a1-3)GalNAc(b1-3)Gal(a1-4)Gal(b1-4)Glc
# Summary of the method: as §1
# [5] = molecular target: GalNAc(a1-3)GalNAc(b1-3)Gal(a1-4)Gal(b1-4)GlcNAc
# Summary of the method: as §1
# GalNAc(b1-3)Gal = molecular target: GalNAc(b1-3)Gal
# Summary of the method: as §1
# [6] = molecular target: GalNAc(b1-3)Gal(a1-4)Gal(b1-4)GlcNAc
# Summary of the method: as §1
# [7] = molecular target: GalNAc(b1-3)Gal(a1-4)Gal(b1-4)GlcNAc(b1-3)Gal(b1-4)Glc
# Summary of the method: as §1
# [8] = molecular target: GalNAc(b1-3)Gal(a1-6)Gal(b1-4)Glc
# Summary of the method: as §1
# GalNAc(b1-3)GalNAc = molecular target: GalNAc(b1-3)GalNAc
# Summary of the method: as §1
# GalNAc(b1-4)Gal(b1-4)Glc = molecular target: GalNAc(b1-4)Gal(b1-4)Glc
# Summary of the method: as §1
# GalNAc(b1-4)GlcNAc = molecular target: GalNAc(b1-4)GlcNAc
# Summary of the method: as §1
# [9] = molecular target: GalNAc(b1-4)GlcNAc(b1-2)Man(a1-3)[GalNAc(b1-4)GlcNAc(b1-2)Man(a1-6)]Man(b1-4)GlcNAc(b1-4)GlcNAc
# Summary of the method: as §1
# GalNAc(b1-6)GalNAc = molecular target: GalNAc(b1-6)GalNAc
# Summary of the method: as §1
# Glc(a1-4)Glc = molecular target: Glc(a1-4)Glc
# Summary of the method: as §1
# [10] = molecular target: Glc(a1-4)Glc(a1-4)Glc(a1-4)Glc
# Summary of the method: as §1
# Glc(a1-6)Glc(a1-6)Glc = molecular target: Glc(a1-6)Glc(a1-6)Glc
# Summary of the method: as §1
# [11] = molecular target: Glc(a1-6)Glc(a1-6)Glc(a1-6)Glc
# Summary of the method: as §1
# Glc(b1-4)Glc = molecular target: Glc(b1-4)Glc
# Summary of the method: as §1
# Glc(b1-6)Glc = molecular target: Glc(b1-6)Glc
# Summary of the method: as §1
# GlcA(b1-3)Gal = molecular target: GlcA(b1-3)Gal
# Summary of the method: as §1
# GlcA(b1-3)GlcNAc = molecular target: GlcA(b1-3)GlcNAc
# Summary of the method: as §1
# GlcA(b1-6)Gal = molecular target: GlcA(b1-6)Gal
# Summary of the method: as §1
# [12] = molecular target: GlcNAc(a1-3)Gal(b1-4)GlcNAc
# Summary of the method: as §1
# [13] = molecular target: GlcNAc(a1-4)Gal(b1-3)GlcNAc
# Summary of the method: as §1
# [14] = molecular target: GlcNAc(a1-4)Gal(b1-4)GalNAc
# Summary of the method: as §1
# [15] = molecular target: GlcNAc(a1-4)Gal(b1-4)GlcNAc
# Summary of the method: as §1
# [16] = molecular target: GlcNAc(a1-4)Gal(b1-4)GlcNAc(b1-3)Gal(b1-4)Glc
# Summary of the method: as §1
binder,measurement,setting,value
B1,glycan array binding signal (z-score),[1],0.104
same,glycan array binding signal (z-score),Gal3S(b1-4)Glc,-0.269
same,glycan array binding signal (z-score),Gal3S(b1-4)Glc6S,0.49
same,glycan array binding signal (z-score),Gal3S(b1-4)GlcNAc,-0.491
same,glycan array binding signal (z-score),Gal3S(b1-4)GlcNAc6S,-0.506
same,glycan array binding signal (z-score),[2],0.278
same,glycan array binding signal (z-score),[3],0.847
same,glycan array binding signal (z-score),Gal3S4S(b1-4)GlcNAc,0.029
same,glycan array binding signal (z-score),Gal3S6S(b1-4)GlcNAc,-0.241
same,glycan array binding signal (z-score),Gal3S6S(b1-4)GlcNAc6S,0.136
same,glycan array binding signal (z-score),Gal4S(b1-4)GlcNAc,0.19
same,glycan array binding signal (z-score),Gal4S6S(b1-4)GlcNAc,0.33
same,glycan array binding signal (z-score),Gal6S(b1-3)GlcNAc,-0.091
same,glycan array binding signal (z-score),Gal6S(b1-3)GlcNAc6S,0.361
same,glycan array binding signal (z-score),Gal6S(b1-4)Glc,-0.47
same,glycan array binding signal (z-score),Gal6S(b1-4)Glc6S,-0.517
same,glycan array binding signal (z-score),Gal6S(b1-4)GlcNAc,-0.689
same,glycan array binding signal (z-score),Gal6S(b1-4)GlcNAc6S,-0.122
same,glycan array binding signal (z-score),GalNAc(a1-3)Gal,-0.107
same,glycan array binding signal (z-score),GalNAc(a1-3)GalNAc,-0.107
same,glycan array binding signal (z-score),[4],-0.141
same,glycan array binding signal (z-score),[5],-0.528
same,glycan array binding signal (z-score),GalNAc(b1-3)Gal,0.325
same,glycan array binding signal (z-score),[6],0.073
same,glycan array binding signal (z-score),[7],-0.993
same,glycan array binding signal (z-score),[8],0.279
same,glycan array binding signal (z-score),GalNAc(b1-3)GalNAc,0.145
same,glycan array binding signal (z-score),GalNAc(b1-4)Gal(b1-4)Glc,-0.211
same,glycan array binding signal (z-score),GalNAc(b1-4)GlcNAc,-0.053
same,glycan array binding signal (z-score),[9],0.003
same,glycan array binding signal (z-score),GalNAc(b1-6)GalNAc,-0.109
same,glycan array binding signal (z-score),Glc(a1-4)Glc,-0.482
same,glycan array binding signal (z-score),[10],0.081
same,glycan array binding signal (z-score),Glc(a1-6)Glc(a1-6)Glc,0.261
same,glycan array binding signal (z-score),[11],0.37
same,glycan array binding signal (z-score),Glc(b1-4)Glc,-0.293
same,glycan array binding signal (z-score),Glc(b1-6)Glc,-0.485
same,glycan array binding signal (z-score),GlcA(b1-3)Gal,1.01
same,glycan array binding signal (z-score),GlcA(b1-3)GlcNAc,-0.868
same,glycan array binding signal (z-score),GlcA(b1-6)Gal,-0.344
same,glycan array binding signal (z-score),[12],0.256
same,glycan array binding signal (z-score),[13],-0.632
same,glycan array binding signal (z-score),[14],-0.236
same,glycan array binding signal (z-score),[15],-0.032
same,glycan array binding signal (z-score),[16],0.067

# Shown bar-delimited: part of the list above.
binder | measurement | setting | value
B1 | glycan array binding signal (z-score) | Gal3S(b1-4)Glc | -0.269
same | glycan array binding signal (z-score) | [2] | 0.278
same | glycan array binding signal (z-score) | Gal3S6S(b1-4)GlcNAc | -0.241
same | glycan array binding signal (z-score) | Gal4S6S(b1-4)GlcNAc | 0.33
same | glycan array binding signal (z-score) | Gal6S(b1-4)GlcNAc | -0.689
same | glycan array binding signal (z-score) | GalNAc(b1-4)Gal(b1-4)Glc | -0.211
same | glycan array binding signal (z-score) | [14] | -0.236
same | glycan array binding signal (z-score) | [15] | -0.032
